Assay results: article PMC5787919, “A feedback regulatory model for RifQ-mediated repression of rifamycin export in Amycolatopsis mediterranei” (Microbial Cell Factories, 2018)

Columns and labels:
[1] = target: T1, RifQ (Amycolatopsis mediterranei S699) (UniProt O52558); assay: EMSA; conditions: all probe shifted at 0.2 uM RifQ, 8 nM probe, 100 ng/uL salmon sperm DNA; EMSA: 8 nM probe, 20 uL, 37 C 30 min, 100 ng/uL sheared salmon sperm DNA, 5% native PAGE in 0.5x TBE; recombinant protein; residues 1-242; label: 5'-FAM; probe letters rebuilt from the primers and the genome; part of a longer molecule
T1 sequence (looked up): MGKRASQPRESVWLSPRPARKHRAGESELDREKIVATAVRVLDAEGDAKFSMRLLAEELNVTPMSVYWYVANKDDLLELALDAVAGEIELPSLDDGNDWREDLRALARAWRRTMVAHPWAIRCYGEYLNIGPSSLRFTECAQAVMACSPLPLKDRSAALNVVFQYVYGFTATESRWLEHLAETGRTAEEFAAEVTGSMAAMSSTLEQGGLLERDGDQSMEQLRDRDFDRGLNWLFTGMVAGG

[2] = target: T1, RifQ (Amycolatopsis mediterranei S699); assay: DNase I footprinting; conditions: footprinting: 40 nM probe, 40 uL, 37 C 30 min, DNase I at 25 C 1 min, binding buffer, salt and pH not stated, recombinant protein, residues 1-242, label: 5'-FAM, probe letters rebuilt from the primers and the genome, part of a longer molecule

CGTCGAGCTGCATCTGTTCCCGGGCACGTTTCATGGCTCGGCCCGGTGCACGGACGCGGCGATCAGCCGGCGTGAGCAGGAGGAGCAGTTCGCGGTCCTGCGGCACGTGACCGGCCGCTGAAGCCTGGCGCCGGGGTGGCTCGCCGGATCGGCGGCGGCCGCGCGCCCGGCGGCGGCTGCCAGGTGCGGTCCCGTTCGCCGTTCCGCCCGGTGACCGGCCGCTGAGCCACGCCTGGATGGCCGCGCGCCTGGCGACCGCCCCCAGCAGCGTGGTCACCTCCGGCGTCGTCATCGCTGGTCACCGCAGGCGCCGAAACCCTCCCGACCCCCGCCCTTGCGCTCCGCCCACCGACCCTTATATGGTGTATAAGAACTTGTCGGACGCAATTCGCTACCGGGGGAGTCCTCTTGCGCGAAATGCACGCCACGGCGGCGGTGACCGAAACCCGGAATCCACGGCGCTGGCTGATTCTGGCCGTCATCTCGC (double strand) [rifP promoter probe]
binding result [1]: binds
binding result ([2]; 40 nM probe, 100 ng/uL salmon sperm DNA): binds
binding result ([2]; 0.6 mM rifamycin B): binds more weakly
binding result ([2]; rifamycin SV up to 20 mM): binds

The exact form of at least one protein or probe is not confirmed. For some of these results: A weaker result is weaker than the reference pair of the same experiment. For some of these results: Tags and fusion partners may be left off the protein sequences shown.
